The results in this text go back to paper PMC12714136, “14-3-3θ phosphorylation at S232 reduces its interactome and regulates axonal trafficking” (Disease Models & Mechanisms, 2025).

By UniProt entry, the sequences of proteins in these tests, tags left out.
UniProt O88737: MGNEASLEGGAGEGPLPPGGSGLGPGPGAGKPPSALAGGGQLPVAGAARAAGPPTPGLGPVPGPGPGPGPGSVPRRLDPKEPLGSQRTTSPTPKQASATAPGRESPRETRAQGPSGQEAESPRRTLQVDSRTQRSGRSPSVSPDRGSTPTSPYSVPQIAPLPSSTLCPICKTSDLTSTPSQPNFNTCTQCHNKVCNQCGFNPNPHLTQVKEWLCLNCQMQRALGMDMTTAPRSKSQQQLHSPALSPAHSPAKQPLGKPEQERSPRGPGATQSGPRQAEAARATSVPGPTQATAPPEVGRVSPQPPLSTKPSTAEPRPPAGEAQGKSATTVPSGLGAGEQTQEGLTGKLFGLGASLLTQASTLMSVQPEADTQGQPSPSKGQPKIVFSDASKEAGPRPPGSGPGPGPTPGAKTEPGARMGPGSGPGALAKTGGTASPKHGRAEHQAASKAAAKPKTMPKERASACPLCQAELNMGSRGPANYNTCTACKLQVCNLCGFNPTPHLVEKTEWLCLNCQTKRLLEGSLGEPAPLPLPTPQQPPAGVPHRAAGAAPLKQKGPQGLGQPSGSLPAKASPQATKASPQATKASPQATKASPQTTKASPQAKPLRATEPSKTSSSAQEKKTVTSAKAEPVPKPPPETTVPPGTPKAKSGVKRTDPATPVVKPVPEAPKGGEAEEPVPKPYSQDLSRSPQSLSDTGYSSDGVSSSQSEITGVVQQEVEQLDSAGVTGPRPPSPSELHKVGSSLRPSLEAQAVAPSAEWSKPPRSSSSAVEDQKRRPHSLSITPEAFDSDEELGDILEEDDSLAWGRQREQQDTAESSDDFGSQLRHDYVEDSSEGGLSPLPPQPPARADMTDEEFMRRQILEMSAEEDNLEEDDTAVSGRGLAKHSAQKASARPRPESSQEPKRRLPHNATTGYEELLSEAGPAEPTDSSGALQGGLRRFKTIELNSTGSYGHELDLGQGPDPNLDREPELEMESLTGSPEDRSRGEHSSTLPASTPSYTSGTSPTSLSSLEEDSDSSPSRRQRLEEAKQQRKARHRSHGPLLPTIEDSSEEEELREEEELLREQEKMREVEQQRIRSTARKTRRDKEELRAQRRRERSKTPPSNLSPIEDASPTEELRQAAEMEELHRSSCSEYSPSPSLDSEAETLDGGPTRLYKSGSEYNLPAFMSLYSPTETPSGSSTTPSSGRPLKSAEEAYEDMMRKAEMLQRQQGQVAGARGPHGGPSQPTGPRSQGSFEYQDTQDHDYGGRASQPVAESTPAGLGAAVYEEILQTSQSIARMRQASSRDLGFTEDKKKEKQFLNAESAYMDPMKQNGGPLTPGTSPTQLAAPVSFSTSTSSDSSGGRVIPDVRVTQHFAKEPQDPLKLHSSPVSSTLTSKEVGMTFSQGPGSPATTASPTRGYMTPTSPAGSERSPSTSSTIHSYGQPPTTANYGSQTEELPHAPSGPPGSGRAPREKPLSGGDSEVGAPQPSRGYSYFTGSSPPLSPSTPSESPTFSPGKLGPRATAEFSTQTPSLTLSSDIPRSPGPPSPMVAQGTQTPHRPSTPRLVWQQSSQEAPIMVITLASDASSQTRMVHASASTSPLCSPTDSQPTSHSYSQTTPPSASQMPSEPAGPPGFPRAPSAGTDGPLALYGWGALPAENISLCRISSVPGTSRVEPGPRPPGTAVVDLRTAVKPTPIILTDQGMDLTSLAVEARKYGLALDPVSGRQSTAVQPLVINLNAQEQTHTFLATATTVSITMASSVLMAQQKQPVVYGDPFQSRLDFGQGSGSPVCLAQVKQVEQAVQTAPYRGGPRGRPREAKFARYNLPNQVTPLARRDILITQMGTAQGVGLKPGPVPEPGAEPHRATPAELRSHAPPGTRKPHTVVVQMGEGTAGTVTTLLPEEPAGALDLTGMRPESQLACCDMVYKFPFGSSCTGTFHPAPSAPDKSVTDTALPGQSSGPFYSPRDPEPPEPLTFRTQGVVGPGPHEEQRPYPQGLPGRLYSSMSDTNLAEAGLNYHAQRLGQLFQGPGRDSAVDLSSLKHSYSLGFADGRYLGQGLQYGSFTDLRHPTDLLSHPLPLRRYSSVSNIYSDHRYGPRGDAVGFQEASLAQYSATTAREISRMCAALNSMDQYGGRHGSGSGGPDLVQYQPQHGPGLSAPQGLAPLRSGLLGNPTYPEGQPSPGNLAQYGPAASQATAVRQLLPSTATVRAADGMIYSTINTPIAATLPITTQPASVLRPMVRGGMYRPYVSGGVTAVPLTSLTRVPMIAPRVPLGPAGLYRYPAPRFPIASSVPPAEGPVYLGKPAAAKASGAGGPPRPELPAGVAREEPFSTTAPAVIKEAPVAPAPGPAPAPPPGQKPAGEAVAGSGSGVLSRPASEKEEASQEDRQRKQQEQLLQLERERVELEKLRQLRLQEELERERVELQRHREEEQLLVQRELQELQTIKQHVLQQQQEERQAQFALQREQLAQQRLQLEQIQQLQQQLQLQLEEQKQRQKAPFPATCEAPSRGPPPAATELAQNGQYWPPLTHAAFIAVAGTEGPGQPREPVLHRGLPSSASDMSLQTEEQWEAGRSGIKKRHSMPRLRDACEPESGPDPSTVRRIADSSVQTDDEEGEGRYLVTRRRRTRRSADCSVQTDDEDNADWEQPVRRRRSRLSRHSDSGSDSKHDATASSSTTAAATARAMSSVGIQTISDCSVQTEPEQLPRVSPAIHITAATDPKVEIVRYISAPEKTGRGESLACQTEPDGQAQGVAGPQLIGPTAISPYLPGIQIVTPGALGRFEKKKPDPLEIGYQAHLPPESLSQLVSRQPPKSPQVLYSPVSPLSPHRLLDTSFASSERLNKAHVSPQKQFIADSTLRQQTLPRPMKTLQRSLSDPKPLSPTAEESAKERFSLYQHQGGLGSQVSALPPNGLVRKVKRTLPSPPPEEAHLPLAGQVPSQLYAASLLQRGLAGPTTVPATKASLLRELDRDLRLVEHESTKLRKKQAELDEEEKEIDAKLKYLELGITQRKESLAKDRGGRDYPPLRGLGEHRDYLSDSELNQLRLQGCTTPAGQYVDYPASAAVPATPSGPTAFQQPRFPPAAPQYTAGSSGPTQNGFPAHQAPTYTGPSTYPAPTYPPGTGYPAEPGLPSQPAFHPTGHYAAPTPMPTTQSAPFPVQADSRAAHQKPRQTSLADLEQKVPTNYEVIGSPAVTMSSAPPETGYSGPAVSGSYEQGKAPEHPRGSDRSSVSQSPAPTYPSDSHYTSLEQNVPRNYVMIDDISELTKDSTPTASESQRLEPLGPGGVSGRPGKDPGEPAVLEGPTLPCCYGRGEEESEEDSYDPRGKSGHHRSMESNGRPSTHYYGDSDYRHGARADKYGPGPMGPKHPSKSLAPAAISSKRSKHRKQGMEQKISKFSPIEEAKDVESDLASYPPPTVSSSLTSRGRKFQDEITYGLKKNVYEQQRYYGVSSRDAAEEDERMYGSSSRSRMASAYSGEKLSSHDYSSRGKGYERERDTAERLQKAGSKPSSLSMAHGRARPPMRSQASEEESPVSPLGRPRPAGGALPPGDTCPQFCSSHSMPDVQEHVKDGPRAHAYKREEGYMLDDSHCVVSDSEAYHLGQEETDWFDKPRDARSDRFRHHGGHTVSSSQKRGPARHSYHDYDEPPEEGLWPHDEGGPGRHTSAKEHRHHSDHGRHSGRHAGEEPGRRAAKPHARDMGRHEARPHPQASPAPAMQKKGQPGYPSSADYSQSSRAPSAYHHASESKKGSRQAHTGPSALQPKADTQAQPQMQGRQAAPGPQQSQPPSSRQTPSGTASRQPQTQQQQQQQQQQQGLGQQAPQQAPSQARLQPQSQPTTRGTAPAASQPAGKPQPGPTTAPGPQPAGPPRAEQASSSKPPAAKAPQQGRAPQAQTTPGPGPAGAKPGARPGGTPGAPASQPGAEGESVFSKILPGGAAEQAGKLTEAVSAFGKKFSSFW
UniProt P11798: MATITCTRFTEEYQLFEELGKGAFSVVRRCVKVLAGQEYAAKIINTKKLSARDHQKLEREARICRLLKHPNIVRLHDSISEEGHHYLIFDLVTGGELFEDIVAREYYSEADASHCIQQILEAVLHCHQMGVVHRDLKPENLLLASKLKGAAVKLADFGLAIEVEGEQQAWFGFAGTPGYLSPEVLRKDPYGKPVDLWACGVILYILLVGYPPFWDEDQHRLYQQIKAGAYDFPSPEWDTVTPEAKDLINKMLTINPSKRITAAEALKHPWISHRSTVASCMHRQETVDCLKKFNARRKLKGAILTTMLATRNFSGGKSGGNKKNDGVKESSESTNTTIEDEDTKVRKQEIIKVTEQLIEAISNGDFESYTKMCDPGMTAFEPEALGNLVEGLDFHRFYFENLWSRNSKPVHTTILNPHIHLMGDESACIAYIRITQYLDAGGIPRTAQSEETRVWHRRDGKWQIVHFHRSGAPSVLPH

What all share (test): affinity purification with mass spectrometry; 14-3-3θ immunoprecipitated with a rabbit polyclonal antibody (rabbit IgG as control) on dynabeads from cortical lysates of 3-month-old Cre control, S232A and S232D mice; 0.5% NP-40 lysis buffer (150 mM NaCl, 10 mM Tris-HCl pH 7.4, 1 mM EGTA, 1 mM EDTA), overnight at 4°C; LC-MS, spectral counts
Assay [1] has as its target T1, 14-3-3θ S232A (non-phosphorylatable mutant, knock-in mouse cortex) (mouse (endogenous in cortex)) (UniProt P68254).
T1 sequence: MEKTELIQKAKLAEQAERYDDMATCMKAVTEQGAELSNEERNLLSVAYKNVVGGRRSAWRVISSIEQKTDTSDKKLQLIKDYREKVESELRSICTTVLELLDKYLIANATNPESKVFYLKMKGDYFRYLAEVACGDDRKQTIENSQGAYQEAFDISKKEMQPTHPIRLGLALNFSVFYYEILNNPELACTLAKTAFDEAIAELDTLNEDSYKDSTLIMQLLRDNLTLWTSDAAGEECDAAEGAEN

The target in assay [2] is T2, 14-3-3θ (wild type, mouse cortex) (mouse (endogenous in cortex)) (UniProt P68254).
T2 sequence: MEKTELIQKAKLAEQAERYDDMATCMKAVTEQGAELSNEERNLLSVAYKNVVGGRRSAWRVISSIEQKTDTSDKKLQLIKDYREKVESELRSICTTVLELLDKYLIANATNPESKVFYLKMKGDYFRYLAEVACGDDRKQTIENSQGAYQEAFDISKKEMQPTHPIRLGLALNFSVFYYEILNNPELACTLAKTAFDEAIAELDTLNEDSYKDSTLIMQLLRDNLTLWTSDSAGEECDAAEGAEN

The target of assay [3] is T1, 14-3-3θ S232A (non-phosphorylatable mutant, knock-in mouse cortex) (mouse (endogenous in cortex)). This is another data set of the same source.
In assay [4] the target is T2, 14-3-3θ (wild type, mouse cortex) (mouse (endogenous in cortex)). The source holds these as a separate data set.

Read-outs that look alike come from different tables or passages of the source. Results are given in words; binding and its absence hold for the method and conditions named. In cells and extracts the contact can be indirect. Here binding means that the protein was enriched with, or labelled near, the bait; the list need not be complete.

For the molecule “bassoon (mouse cortex) (from UniProt O88737 1-3942)”, the binding entry in assay [1] is reported as “binds”.

Turning to β-spectrin (mouse cortex), the binding result in assay [2] is reported as “binds”.

Turning to “calcium/calmodulin-dependent protein kinase type II subunit alpha (from UniProt P11798 1-478)”, the binding result in assay [2] is given as “binds”.

B1: huntingtin-associated protein 1 (mouse cortex) (protein, UniProt O35668 1-628)
chain: MRPKEQVQSGAGDGTGSGDPAAGTPTTQPAVGPAPEPSAEPKPAPAQGTGSGQKSGSRTKTGSFCRSMIIGDSDAPWTRYVFQGPYGPRATGLGTGKAEGIWKTPAAYIGRRPGVSGPERAAFIRELQEALCPNPPPTKKITEDDVKVMLYLLEEKERDLNTAARIGQSLVKQNSVLMEENNKLETMLGSAREEILHLRKQVNLRDDLLQLYSDSDDDDDEEDEEDEEEGEEEEREGQRDQDQQHDHPYGAPKPHPKAETAHRCPQLETLQQKLRLLEEENDHLREEASHLDNLEDEEQMLILECVEQFSEASQQMAELSEVLVLRLEGYERQQKEITQLQAEITKLQQRCQSYGAQTEKLQQMLASEKGIHSESLRAGSYMQDYGSRPRDRQEDGKSHRQRSSMPAGSVTHYGYSVPLDALPSFPETLAEELRTSLRKFITDPAYFMERRDTHCREGRKKEQRAMPPPPAQDLKPPEDFEAPEELVPEEELGAIEEVGTAEDGQAEENEQASEETEAWEEVEPEVDETTRMNVVVSALEASGLGPSHLDMKYVLQQLSNWQDAHSKRQQKQKVVPKDSPTPQQQTNMGGGILEQQPRVPTQDSQRLEEDRATHSPSAREEEGPSGAT
Turning to B1, the binding entry in assay [3] is given as “binds”.

B2: breakpoint cluster region (mouse cortex) (protein, UniProt Q6PAJ1 1-1270)
chain: MVDSVGFAEAWRAQFPDSEPPRMELRSVGDIEQELERCKASIRRLEQEVNQERFRMIYLQTLLAKEKKSYDRQRWGFRRAAQPPDGAAEPRASAPRPPPAPADGADPAPVEESEARPDGEGSPSKGRSASARRPAAAASADRDDRGPPTSVAALRSNFEKIRKGPAQPGSADAEKPFYVNVEFHHERGLVKVNDKEVSDRISSLGSQAMQMERKKSQQSAGQGLGEAPRPHYRGRSSESSCGLDGDYEDAELNPRFLKDNLINANGGNRPPWPPLEYQPYQSIYVGGMMVEGEGKSPLLRSQSTSEQEKRLTWPRRSYSPRSFEDSGGGYTPDCSSNENLTSSEEDFSSGQSSRVSPSPTTYRMFRDKSRSPSQNSQQSFDSSSPPTPQCQKRHRQCQVVVSEATIVGVRKTGQIWPSDGDSTFQGEADSSFGTPPGYGCAADQAEEQRRHQDGLPYIDDSPSSSPHLSSKGRGSLASGALDPTKVSELDLEKGLEMRKWVLSGILASEETYLSHLEALLLPMKPLKAAATTSQPVLTSQQIETIFFKVPELYEIHKEFYDGLFPRVQQWSHQQRVGDLFQKLASQLGVYRAFVDNYGVAMETAEKCCQANAQFAEISENLRARSNKDVKDSTTKNSLETLLYKPVDRVTRSTLVLHDLLKHTPSSHPDHSLLQDALRISQNFLSSINEEITPRRQSMTVKKGEHRQLLKDSFMVELVEGARKLRHIFLFTDLLLCTKLKKQSGGKTQQYDCKWYIPLTDLSFQMVDELEALPNIPLVPDEELDALKIKISQIKSDIQREKRANKGSKVMERLRKKLSEQESLLLLMSPSMAFRVHSRNGKSYTFLISSDYERAEWRESIREQQKKCFKSFSLTSVELQMLTNSCVKLQTVHHIPLTINKEDDESPGLYGFLHVIVHSATGFKQSSNLYCTLEVDSFGYFVNKAKTRVYRDTTEPNWNEEFEIELEGSQTLRILCYEKCYNKMKMTKEDGESADKLMGKGQVQLDPQTLQDRDWQRTVIDMNGIEVKLSVKFTSREFSLKRMPSRKQTGVFGVKIAVVTKRERSKVPYIVRQCVEEIERRGMEEVGIYRVSGVATDIQALKAAFDVNNKDVSVMMSEMDVNAIAGTLKLYFRELPEPLFTDEFYPNFAEGIALSDPVAKESCMLNLLLSLPEANLLTFLFLLDHLKRVAEKETVNKMSLHNLATVFGPTLLRPSEKESKLPANPSQPITMTDSWSLEVMSQVQVLLYFLQLEAIPAPDSKRQSILFSTEV
In the case of B2, the binding entry in assay [3] is “binds”.

B3: dynamin 1 (mouse cortex) (protein, UniProt P39053 1-867)
chain: MGNRGMEDLIPLVNRLQDAFSAIGQNADLDLPQIAVVGGQSAGKSSVLENFVGRDFLPRGSGIVTRRPLVLQLVNSTTEYAEFLHCKGKKFTDFEEVRLEIEAETDRVTGTNKGISPVPINLRVYSPHVLNLTLVDLPGMTKVPVGDQPPDIEFQIRDMLMQFVTKENCLILAVSPANSDLANSDALKIAKEVDPQGQRTIGVITKLDLMDEGTDARDVLENKLLPLRRGYIGVVNRSQKDIDGKKDITAALAAERKFFLSHPSYRHLADRMGTPYLQKVLNQQLTNHIRDTLPGLRNKLQSQLLSIEKEVDEYKNFRPDDPARKTKALLQMVQQFAVDFEKRIEGSGDQIDTYELSGGARINRIFHERFPFELVKMEFDEKELRREISYAIKNIHGIRTGLFTPDMAFETIVKKQVKKIREPCLKCVDMVISELISTVRQCTKKLQQYPRLREEMERIVTTHIREREGRTKEQVMLLIDIELAYMNTNHEDFIGFANAQQRSNQMNKKKTSGNQDEILVIRKGWLTINNIGIMKGGSKEYWFVLTAENLSWYKDDEEKEKKYMLSVDNLKLRDVEKGFMSSKHIFALFNTEQRNVYKDYRQLELACETQEEVDSWKASFLRAGVYPERVGDKEKASETEENGSDSFMHSMDPQLERQVETIRNLVDSYMAIVNKTVRDLMPKTIMHLMINNTKEFIFSELLANLYSCGDQNTLMEESAEQAQRRDEMLRMYHALKEALSIIGDINTTTVSTPMPPPVDDSWLQVQSVPAGRRSPTSSPTPQRRAPAVPPARPGSRGPAPGPPPAGSALGGAPPVPSRPGASPDPFGPPPQVPSRPNRAPPGVPSLGAWRLNSPQGKHENRAGKARL
On to B3, for which the binding entry in assay [4] is given as “binds”.

B4: nuclear distribution protein nude-like 1 (mouse cortex) (protein, UniProt Q9ERR1 1-345)
chain: MDGEDIPDFSSLKEETAYWKELSLKYKQSFQEARDELVEFQEGSRELEAELEAQLVQAEQRNRDLQADNQRLKYEVEALKEKLEHQYAQSYKQVSVLEDDLSQTRAIKEQLHKYVRELEQANDDLERAKRATIVSLEDFEQRLNQAIERNAFLESELDEKESLLVSVQRLKDEARDLRQELAVRERQQEVTRKSAPSSPTLDCEKMDSAVQASLSLPATPVGKGTENSFPSPKAIPNGFGTSPLTPSARISALNIVGDLLRKVGALESKLAACRNFAKDQASRKSYVPGSVNCGVMNSNGPECPRSGRATFFHKGAVNGFDPAPPPPGLGSSRPSSAPGMLPLSV
On to B4, for which the binding result in assay [3] is on record as “binds”.
